Measurements reported in PubChem BioAssay AID686938 (Drosophila RNAi Screening Center, 2013)
Assay: 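Looking for CRAC channel components and the factors controlling them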 (primary screen). System: Drosophila S2R+ cells. Reagents: long dsRNA against Drosophila genes, about 0.25 µg dsRNA per well, roughly 10,000 cells. Time to read-out: 5 days of knock-down before the calcium assay. Conditions: thapsigargin (SERCA pump blocker) to empty calcium stores; entry signal taken 4 min after adding it. Read-out: 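Per-well fluo-4 fluorescence in two replicates, unnormalised, measured in resting cells and 4 min after store depletion by the SERCA blocker thapsigargin; ratio of the two present in few wells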. Scale: calcium entry signal: higher = stronger calcium signal after store depletion; entry to resting ratio: higher = more calcium entry relative to resting level; resting calcium signal: higher = higher resting calcium signal. Hit rule: 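Hit if the duplicate-averaged plate z-score for entry over resting signal is under −3; wells with weak total dye signal (Fmax z < −2) or more than 5 off-targets removed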. Meaning of the calls: active = strongly reduced calcium entry; inactive = no strong reduction.
The screen tested about 23,000 reagents; this is an unselected part of those with a known target gene and a result. In the full data, 75 (0.33%) are marked active. 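Raw plate signals without normalisation; calls rest on plate z-scores that were not deposited; ratio present for only 364 wells.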 A plus sign joins genes that one reagent is predicted to hit. Not given: the dose of the treatment.

| gene | dsRNA | calcium entry signal, replicate 1 (fluorescence units) | calcium entry signal, replicate 2 (fluorescence units) | entry to resting ratio | resting calcium signal, replicate 1 (fluorescence units) | resting calcium signal, replicate 2 (fluorescence units) | outcome |
| --- | --- | --- | --- | --- | --- | --- | --- |
| Su(var)2-10 | DRSC07721 | 4.25e7 | 4.54e7 | – | 2.04e7 | 2.04e7 | inactive |
| CG43327 + CG43328 | DRSC05640 | 3.13e7 | 3.51e7 | – | 1.42e7 | 1.75e7 | inactive |
| DCX-EMAP | DRSC10012 | 5.32e7 | 6.33e7 | – | 2.53e7 | 2.45e7 | inactive |
| DCX-EMAP | DRSC10013 | 7.49e7 | 9.00e7 | – | 3.52e7 | 3.10e7 | inactive |
| CG10993 | DRSC19362 | 1.73e7 | 2.02e7 | – | 9.73e6 | 9.79e6 | inactive |
| PpD5 | DRSC04641 | 3.48e7 | 4.11e7 | – | 1.52e7 | 1.61e7 | inactive |
| PpD5 | DRSC23312 | 3.79e7 | 4.54e7 | – | 1.84e7 | 1.95e7 | inactive |
| lncRNA:CR32160 | DRSC22904 | 4.17e7 | 3.61e7 | – | 2.28e7 | 1.73e7 | inactive |
| Grip71 | DRSC02042 | 1.91e7 | 3.64e7 | – | 1.03e7 | 1.63e7 | inactive |
| Las | DRSC11772 | 4.28e7 | 4.78e7 | – | 1.90e7 | 3.23e7 | inactive |
| CG33267 | DRSC09120 | 3.60e7 | 5.29e7 | – | 1.79e7 | 2.31e7 | inactive |
| CG33269 | DRSC10585 | 4.05e7 | 5.08e7 | – | 2.43e7 | 2.74e7 | inactive |
| ND-51L2 | DRSC07080 | 3.62e7 | 4.89e7 | – | 1.81e7 | 2.07e7 | inactive |
| CG14314 | DRSC14793 | 3.54e7 | 3.98e7 | – | 5.36e7 | 1.85e7 | inactive |
| Nedd8 | DRSC02092 | 4.65e7 | 3.85e7 | – | 2.64e7 | 2.01e7 | inactive |
| alien | DRSC03482 | 3.01e7 | – | – | 1.62e7 | – | inactive |
| NO66 | DRSC18252 | 4.24e7 | 4.43e7 | – | 1.85e7 | 1.98e7 | inactive |
| RpL26 | DRSC10726 | 9.66e6 | 9.85e6 | – | 6.68e6 | 7.40e6 | inactive |
| CG43861 | DRSC02170 | 3.76e7 | 4.28e7 | – | 1.89e7 | 1.90e7 | inactive |
| CG43861 | DRSC02308 | 3.57e7 | 3.77e7 | – | 1.79e7 | 1.95e7 | inactive |
| Mks1 | DRSC19697 | 4.21e7 | 3.02e7 | – | 2.13e7 | 1.59e7 | inactive |
| mars | DRSC06656 | 2.76e7 | 5.23e7 | – | 1.31e7 | 2.30e7 | inactive |
| ND-MNLL | DRSC18159 | 2.25e7 | 4.15e7 | – | 1.23e7 | 1.88e7 | inactive |
| rho-6 | DRSC02588 | 3.99e7 | 2.50e7 | – | 1.72e7 | 1.23e7 | inactive |
| Ubc10 | DRSC07568 | 3.71e7 | 4.19e7 | – | 1.48e7 | 1.99e7 | inactive |
| CG13679 | DRSC10037 | 3.58e7 | 4.79e7 | – | 1.73e7 | 2.36e7 | inactive |
| CG13679 | DRSC22749 | 3.66e7 | 3.76e7 | – | 2.06e7 | 1.69e7 | inactive |
| CG5968 | DRSC02916 | 5.49e7 | 3.19e7 | – | 2.32e7 | 1.66e7 | inactive |
| ru | DRSC08258 | 3.53e7 | 4.65e7 | – | 1.74e7 | 1.91e7 | inactive |
| CheA84a | DRSC12669 | 3.22e7 | 6.42e7 | – | 1.60e7 | 2.87e7 | inactive |
| CG6345 | DRSC16024 | 2.97e7 | 3.39e7 | – | 1.42e7 | 1.76e7 | inactive |
| CG43155 | DRSC19642 | 3.11e7 | 8.82e7 | – | 1.47e7 | 3.46e7 | inactive |
| CG43155 | DRSC19777 | 3.07e7 | 6.22e7 | – | 1.58e7 | 2.69e7 | inactive |
| Ih | DRSC05477 | 5.13e7 | 4.81e7 | – | 2.50e7 | 2.12e7 | inactive |
| Ih | DRSC07445 | 4.10e7 | 4.69e7 | – | 1.75e7 | 2.12e7 | inactive |
| Ih | DRSC22956 | 2.42e7 | 2.32e7 | – | 1.32e7 | 1.07e7 | inactive |
| pit | DRSC17025 | 2.18e7 | 2.59e7 | – | 1.28e7 | 6.55e7 | inactive |
| pit | DRSC22798 | 4.20e7 | 3.69e7 | – | 2.03e7 | 1.73e7 | inactive |
| TfIIFalpha | DRSC12608 | 1.96e7 | 2.72e7 | – | 1.09e7 | 1.42e7 | inactive |
| CG15140 | DRSC02440 | 4.96e7 | 3.28e7 | – | 2.18e7 | 1.65e7 | inactive |
| AP-1sigma | DRSC15899 | 2.87e7 | 2.52e7 | – | 1.43e7 | 1.20e7 | inactive |
| CG14811 | DRSC17962 | 3.63e7 | 5.36e7 | 2 | 1.81e7 | 2.21e7 | inactive |
| lncRNA:CR32660 | DRSC22965 | 2.42e7 | 2.73e7 | – | 1.24e7 | 1.21e7 | inactive |
| Ctf4 | DRSC06380 | 4.44e7 | 4.02e7 | – | 1.75e7 | 1.82e7 | inactive |
| Mettl3 | DRSC15921 | 6.07e7 | 6.60e7 | – | 2.71e7 | 2.68e7 | inactive |
| CtIP | DRSC11785 | 2.56e7 | 4.04e7 | – | 1.28e7 | 1.72e7 | inactive |
| CG15365 | DRSC18038 | 2.23e7 | 2.59e7 | – | 1.36e7 | 1.52e7 | inactive |
| CG15365 | DRSC23021 | 4.80e7 | 3.22e7 | – | 2.20e7 | 1.59e7 | inactive |
| CG3502 | DRSC04381 | 4.39e7 | – | – | 2.23e7 | – | inactive |
| CG15282 | DRSC22620 | 3.61e7 | 3.66e7 | – | 2.12e7 | 1.80e7 | inactive |
| CG15282 | DRSC23090 | 6.61e7 | 3.81e7 | – | 3.19e7 | 1.77e7 | inactive |
| CG31548 | DRSC22640 | 4.24e7 | 4.53e7 | – | 2.45e7 | 2.01e7 | inactive |
| Gr28a | DRSC02290 | 3.38e7 | 4.28e7 | – | 1.81e7 | 1.93e7 | inactive |
| CG11211 | DRSC04851 | 4.27e7 | 4.12e7 | – | 2.08e7 | 2.02e7 | inactive |
| CG13471 | DRSC10015 | 5.33e7 | 6.96e7 | – | 2.42e7 | 2.76e7 | inactive |
| CG5726 | DRSC06946 | 3.73e7 | 3.65e7 | – | 1.78e7 | 1.91e7 | inactive |
| CG2533 | DRSC19855 | 3.40e7 | 6.95e7 | – | 1.62e7 | 2.84e7 | inactive |
| CG7377 | DRSC10830 | 2.65e7 | 3.34e7 | – | 1.48e7 | 1.51e7 | inactive |
| RecQ5 | DRSC11266 | 3.14e7 | 4.72e7 | – | 1.56e7 | 2.93e7 | inactive |
| EbpIII | DRSC04638 | 2.71e7 | 3.42e7 | – | 1.47e7 | 1.49e7 | inactive |
| Pgls | DRSC19769 | 3.88e7 | 6.75e7 | – | 2.00e7 | 3.17e7 | inactive |
| Mekk1 | DRSC16302 | 2.07e7 | 2.26e7 | – | 1.06e7 | 9.71e6 | inactive |
| Mekk1 | DRSC16303 | 3.20e7 | 3.72e7 | – | 5.02e7 | 1.64e7 | inactive |
| CG4424 | DRSC15576 | 3.55e7 | 2.99e7 | – | 1.61e7 | 1.30e7 | inactive |
| CG7296 | DRSC03042 | 3.66e7 | 5.47e7 | – | 1.69e7 | 2.67e7 | inactive |
| CG7296 | DRSC22343 | 3.27e7 | 6.24e7 | – | 1.55e7 | 2.86e7 | inactive |
| Ir87a | DRSC14836 | 3.25e7 | 6.57e7 | – | 1.68e7 | 6.91e7 | inactive |
| CG18810 | DRSC02701 | 6.14e7 | 6.35e7 | – | 2.95e7 | 2.44e7 | inactive |
| CG17472 | DRSC02622 | 4.32e7 | 4.43e7 | – | 1.91e7 | 1.92e7 | inactive |
| papi | DRSC00693 | 3.79e7 | – | – | 1.88e7 | – | inactive |
| Uba3 | DRSC06377 | 3.55e7 | 3.33e7 | – | 1.58e7 | 1.57e7 | inactive |
| CG32036 | DRSC10362 | 4.42e7 | 4.07e7 | – | 3.10e7 | 1.65e7 | inactive |
| ZAP3 | DRSC17852 | 4.11e7 | 4.46e7 | – | 1.99e7 | 2.07e7 | inactive |
| ZAP3 | DRSC17853 | 3.94e7 | 4.20e7 | – | 1.95e7 | 2.13e7 | inactive |
| ZAP3 | DRSC18249 | 3.29e7 | 4.36e7 | – | 1.68e7 | 1.99e7 | inactive |

Reformatted: entries from further up.
gene,dsRNA,"calcium entry signal, replicate 1 (fluorescence units)","calcium entry signal, replicate 2 (fluorescence units)",entry to resting ratio,"resting calcium signal, replicate 1 (fluorescence units)","resting calcium signal, replicate 2 (fluorescence units)",outcome
Ih,DRSC22956,2.42e7,2.32e7,,1.32e7,1.07e7,inactive
pit,DRSC17025,2.18e7,2.59e7,,1.28e7,6.55e7,inactive
pit,DRSC22798,4.20e7,3.69e7,,2.03e7,1.73e7,inactive
TfIIFalpha,DRSC12608,1.96e7,2.72e7,,1.09e7,1.42e7,inactive
CG15140,DRSC02440,4.96e7,3.28e7,,2.18e7,1.65e7,inactive
AP-1sigma,DRSC15899,2.87e7,2.52e7,,1.43e7,1.20e7,inactive
CG14811,DRSC17962,3.63e7,5.36e7,2,1.81e7,2.21e7,inactive
lncRNA:CR32660,DRSC22965,2.42e7,2.73e7,,1.24e7,1.21e7,inactive
Ctf4,DRSC06380,4.44e7,4.02e7,,1.75e7,1.82e7,inactive
Mettl3,DRSC15921,6.07e7,6.60e7,,2.71e7,2.68e7,inactive
